Common to all, as to test: log2 fold change, soluble protein after heating vs DMSO (PISA); higher = thermal stabilisation; K562 lysate, 10 uM; active = over 0.2 and 3.5 SD of the protein, either way, in both replicates (recomputed)
Compound in test [1]: NCC(=O)Nc1ccc(-n2nc(C(F)(F)F)cc2-c2ccc3c(ccc4ccccc43)c2)cc1
The essentials: (§1)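 K562 pellets were dounce-homogenised in PBS pH 7.4 with 1 mM MgCl2, and the crude extract at 1 mg/mL protein was treated with 10 μM compound for 30 min. Aliquots were heated for 3 min across 48°C-58°C, pooled, and brought to 0.5% NP-40 at 4°C; soluble protein was the supernatant after 21,000xg for 90 min. Soluble protein was quantified by TMTpro 16plex LC-MS/MS with channel sums equalised, and reported as log2 fold change in thermal stability against DMSO controls, with values from duplicates.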

Chains of the proteins cited; added tags and fusions are not shown. Lines headed by an entry give the natural chain unless they say otherwise; changes in a name come on top.
UniProt Q9BSV6: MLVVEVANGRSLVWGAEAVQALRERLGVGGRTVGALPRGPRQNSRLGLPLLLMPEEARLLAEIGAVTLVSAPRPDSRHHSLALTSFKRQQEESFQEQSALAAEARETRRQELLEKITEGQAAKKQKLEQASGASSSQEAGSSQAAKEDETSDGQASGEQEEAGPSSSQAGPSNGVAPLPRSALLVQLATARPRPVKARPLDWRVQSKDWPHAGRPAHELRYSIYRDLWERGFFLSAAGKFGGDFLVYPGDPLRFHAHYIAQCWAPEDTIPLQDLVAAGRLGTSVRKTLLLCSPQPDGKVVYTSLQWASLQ
UniProt Q96Q05, whole entry, looked up: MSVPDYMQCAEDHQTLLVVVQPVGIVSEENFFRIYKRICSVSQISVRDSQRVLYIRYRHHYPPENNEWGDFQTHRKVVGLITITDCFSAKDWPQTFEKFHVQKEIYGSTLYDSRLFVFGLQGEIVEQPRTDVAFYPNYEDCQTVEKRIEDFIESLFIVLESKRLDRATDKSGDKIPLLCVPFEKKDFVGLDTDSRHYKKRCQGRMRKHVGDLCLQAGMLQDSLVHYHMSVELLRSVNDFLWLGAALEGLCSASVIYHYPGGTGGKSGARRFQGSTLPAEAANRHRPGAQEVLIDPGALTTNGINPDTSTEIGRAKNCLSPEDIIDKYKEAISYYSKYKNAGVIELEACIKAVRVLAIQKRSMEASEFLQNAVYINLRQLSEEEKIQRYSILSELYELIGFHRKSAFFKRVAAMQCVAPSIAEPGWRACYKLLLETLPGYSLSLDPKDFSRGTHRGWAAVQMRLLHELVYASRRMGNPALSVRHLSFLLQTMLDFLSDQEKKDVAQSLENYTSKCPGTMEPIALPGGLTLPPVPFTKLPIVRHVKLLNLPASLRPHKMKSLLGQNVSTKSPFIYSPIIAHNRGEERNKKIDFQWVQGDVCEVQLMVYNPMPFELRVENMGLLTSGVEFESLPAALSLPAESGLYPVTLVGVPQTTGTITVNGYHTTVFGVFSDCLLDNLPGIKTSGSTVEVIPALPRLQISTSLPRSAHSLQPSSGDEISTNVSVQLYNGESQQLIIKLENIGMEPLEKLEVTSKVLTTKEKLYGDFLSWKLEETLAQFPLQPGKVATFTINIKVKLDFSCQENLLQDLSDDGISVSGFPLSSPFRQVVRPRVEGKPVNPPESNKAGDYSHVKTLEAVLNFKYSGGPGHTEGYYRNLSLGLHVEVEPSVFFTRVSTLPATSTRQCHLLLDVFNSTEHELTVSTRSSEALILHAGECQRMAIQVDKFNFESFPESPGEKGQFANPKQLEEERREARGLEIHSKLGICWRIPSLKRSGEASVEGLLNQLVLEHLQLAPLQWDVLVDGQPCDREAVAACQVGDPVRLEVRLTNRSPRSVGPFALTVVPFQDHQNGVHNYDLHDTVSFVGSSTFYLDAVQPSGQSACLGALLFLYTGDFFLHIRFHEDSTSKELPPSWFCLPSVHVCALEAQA
UniProt O95857: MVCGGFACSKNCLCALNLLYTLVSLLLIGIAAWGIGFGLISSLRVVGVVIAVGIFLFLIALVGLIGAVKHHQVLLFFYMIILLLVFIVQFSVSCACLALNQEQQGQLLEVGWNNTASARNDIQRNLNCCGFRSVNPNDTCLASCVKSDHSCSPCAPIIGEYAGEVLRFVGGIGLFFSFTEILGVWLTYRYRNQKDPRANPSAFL
UniProt Q9Y5R8, whole entry, looked up: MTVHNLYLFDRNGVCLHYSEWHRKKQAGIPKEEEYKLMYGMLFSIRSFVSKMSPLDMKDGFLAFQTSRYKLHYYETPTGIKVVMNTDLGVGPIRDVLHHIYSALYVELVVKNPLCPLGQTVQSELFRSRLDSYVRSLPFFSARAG
UniProt O75157: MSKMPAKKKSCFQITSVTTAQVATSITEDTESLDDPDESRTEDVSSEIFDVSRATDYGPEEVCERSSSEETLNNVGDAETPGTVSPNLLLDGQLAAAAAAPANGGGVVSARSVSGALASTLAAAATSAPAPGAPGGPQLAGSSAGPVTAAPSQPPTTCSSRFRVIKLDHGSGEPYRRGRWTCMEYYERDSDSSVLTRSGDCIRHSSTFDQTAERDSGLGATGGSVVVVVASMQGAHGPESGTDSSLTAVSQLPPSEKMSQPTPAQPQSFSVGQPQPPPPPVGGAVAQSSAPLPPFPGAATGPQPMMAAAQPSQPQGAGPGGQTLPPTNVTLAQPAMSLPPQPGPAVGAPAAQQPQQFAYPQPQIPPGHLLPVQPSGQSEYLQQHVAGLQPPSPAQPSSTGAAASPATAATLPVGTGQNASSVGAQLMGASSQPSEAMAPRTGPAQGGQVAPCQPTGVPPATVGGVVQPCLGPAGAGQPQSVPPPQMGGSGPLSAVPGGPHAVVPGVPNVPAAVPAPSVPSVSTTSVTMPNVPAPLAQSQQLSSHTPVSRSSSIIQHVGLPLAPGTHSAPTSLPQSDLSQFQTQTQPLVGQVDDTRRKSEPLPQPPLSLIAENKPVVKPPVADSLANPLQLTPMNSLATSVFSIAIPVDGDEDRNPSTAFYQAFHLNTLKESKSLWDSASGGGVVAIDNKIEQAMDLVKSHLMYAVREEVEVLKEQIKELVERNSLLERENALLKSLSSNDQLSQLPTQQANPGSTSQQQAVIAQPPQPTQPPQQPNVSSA
UniProt Q8TBZ6: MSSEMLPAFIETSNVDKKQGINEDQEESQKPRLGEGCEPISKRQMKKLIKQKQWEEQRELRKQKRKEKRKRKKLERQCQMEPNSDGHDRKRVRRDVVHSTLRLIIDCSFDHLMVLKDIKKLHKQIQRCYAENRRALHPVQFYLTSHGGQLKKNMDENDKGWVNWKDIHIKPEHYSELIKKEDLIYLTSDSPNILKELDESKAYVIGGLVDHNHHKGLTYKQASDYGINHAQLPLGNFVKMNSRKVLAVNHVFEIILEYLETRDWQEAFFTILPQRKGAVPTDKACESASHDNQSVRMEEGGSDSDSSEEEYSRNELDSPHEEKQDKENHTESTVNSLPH
UniProt Q96F44: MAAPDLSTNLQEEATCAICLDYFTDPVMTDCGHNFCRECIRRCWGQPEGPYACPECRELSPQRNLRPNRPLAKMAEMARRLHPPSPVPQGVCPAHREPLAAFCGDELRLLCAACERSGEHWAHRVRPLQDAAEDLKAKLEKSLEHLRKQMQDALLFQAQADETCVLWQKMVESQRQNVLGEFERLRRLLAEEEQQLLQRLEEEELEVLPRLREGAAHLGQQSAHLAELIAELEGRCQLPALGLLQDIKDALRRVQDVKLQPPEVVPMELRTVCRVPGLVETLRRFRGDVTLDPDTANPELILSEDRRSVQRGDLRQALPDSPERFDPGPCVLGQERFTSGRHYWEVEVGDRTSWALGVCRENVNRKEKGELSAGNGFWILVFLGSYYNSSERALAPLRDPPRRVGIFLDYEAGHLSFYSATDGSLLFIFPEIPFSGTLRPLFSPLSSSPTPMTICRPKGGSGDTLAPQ
UniProt Q13049: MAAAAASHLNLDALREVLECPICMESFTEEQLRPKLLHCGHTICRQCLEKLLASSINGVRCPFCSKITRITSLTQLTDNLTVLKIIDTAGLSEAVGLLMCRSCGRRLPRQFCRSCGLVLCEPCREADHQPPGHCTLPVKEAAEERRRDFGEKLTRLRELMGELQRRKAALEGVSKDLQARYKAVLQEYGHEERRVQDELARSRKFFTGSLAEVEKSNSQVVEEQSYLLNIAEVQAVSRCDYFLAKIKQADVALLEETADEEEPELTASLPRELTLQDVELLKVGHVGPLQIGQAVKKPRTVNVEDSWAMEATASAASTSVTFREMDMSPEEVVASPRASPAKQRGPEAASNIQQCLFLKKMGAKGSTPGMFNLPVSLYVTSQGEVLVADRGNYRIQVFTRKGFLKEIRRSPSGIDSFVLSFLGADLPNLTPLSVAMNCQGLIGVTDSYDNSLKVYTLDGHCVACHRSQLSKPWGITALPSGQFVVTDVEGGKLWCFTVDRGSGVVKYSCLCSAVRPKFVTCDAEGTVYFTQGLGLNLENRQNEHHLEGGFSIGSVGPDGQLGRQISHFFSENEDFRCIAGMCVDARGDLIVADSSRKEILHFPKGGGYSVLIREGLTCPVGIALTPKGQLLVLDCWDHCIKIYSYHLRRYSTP
UniProt Q9H0U9: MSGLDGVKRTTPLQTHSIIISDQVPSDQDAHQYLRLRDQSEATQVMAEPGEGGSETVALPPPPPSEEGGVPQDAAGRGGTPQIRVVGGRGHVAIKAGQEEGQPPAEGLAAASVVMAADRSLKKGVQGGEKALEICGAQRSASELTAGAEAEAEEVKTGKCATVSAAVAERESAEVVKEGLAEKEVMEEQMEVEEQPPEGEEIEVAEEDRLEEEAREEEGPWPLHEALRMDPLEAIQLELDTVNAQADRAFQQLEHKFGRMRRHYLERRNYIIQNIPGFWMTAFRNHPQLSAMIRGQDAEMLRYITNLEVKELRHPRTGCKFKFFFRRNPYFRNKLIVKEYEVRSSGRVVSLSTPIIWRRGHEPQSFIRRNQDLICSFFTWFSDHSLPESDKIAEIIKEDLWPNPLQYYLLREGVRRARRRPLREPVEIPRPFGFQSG
UniProt Q9UJT2: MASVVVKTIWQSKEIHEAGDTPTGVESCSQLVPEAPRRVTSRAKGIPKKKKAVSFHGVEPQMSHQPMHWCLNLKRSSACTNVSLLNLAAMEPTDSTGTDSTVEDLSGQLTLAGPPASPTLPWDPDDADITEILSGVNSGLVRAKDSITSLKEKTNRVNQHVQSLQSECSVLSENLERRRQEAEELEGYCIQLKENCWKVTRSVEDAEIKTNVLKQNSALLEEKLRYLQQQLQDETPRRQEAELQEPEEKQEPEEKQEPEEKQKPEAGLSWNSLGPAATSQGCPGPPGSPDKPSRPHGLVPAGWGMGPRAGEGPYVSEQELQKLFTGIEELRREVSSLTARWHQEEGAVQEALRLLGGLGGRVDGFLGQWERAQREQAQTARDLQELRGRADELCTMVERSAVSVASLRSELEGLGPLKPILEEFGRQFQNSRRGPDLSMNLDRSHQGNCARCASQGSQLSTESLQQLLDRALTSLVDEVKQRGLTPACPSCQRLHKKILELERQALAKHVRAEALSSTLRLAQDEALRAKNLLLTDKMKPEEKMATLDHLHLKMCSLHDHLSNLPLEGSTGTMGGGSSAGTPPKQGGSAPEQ
UniProt Q8N4P2: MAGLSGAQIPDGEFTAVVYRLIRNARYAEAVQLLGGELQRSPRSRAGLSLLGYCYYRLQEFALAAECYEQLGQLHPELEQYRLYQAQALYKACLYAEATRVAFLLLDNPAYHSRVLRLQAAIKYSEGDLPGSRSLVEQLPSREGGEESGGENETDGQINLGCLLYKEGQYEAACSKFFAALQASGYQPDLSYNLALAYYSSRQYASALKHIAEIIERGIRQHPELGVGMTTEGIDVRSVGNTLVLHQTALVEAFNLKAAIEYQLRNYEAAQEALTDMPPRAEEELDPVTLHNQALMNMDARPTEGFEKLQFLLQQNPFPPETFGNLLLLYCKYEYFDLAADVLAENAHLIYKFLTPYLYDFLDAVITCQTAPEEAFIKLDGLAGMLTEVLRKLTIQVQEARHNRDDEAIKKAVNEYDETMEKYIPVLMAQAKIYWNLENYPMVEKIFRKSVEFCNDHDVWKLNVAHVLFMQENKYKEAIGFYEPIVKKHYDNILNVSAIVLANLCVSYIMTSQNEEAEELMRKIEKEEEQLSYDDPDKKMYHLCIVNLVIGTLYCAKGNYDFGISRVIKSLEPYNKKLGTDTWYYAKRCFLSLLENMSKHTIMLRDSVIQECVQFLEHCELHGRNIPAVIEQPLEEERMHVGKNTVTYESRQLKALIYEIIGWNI

Compound in another test: O=C(CCCCCCC(=O)Nc1ccccc1)NO [vorinostat]
The essentials: as §1

Compound in a further test: O=C(O)c1ccc2c(c1)nc(Nc1cccc(Cl)c1)c1ccncc12 [silmitasertib]
The essentials: as §1

Compound in test [2]: O=C1NC(=O)C(c2cnc3ccccn23)=C1c1cn2c3c(cc(F)cc13)CN(C(=O)N1CCCCC1)CC2
Summed up: as §1

Compound in the next test: c1cn2cc(-c3ccc4cn[nH]c4c3)nc(Nc3ccc(N4CCOCC4)cc3)c2n1 [entospletinib]
The essentials: as §1

Some of the results follow.

These results are taken from the supplement of paper PMC10849652.

Take TSEN34 (UniProt Q9BSV6): the log2 fold change in test [1] was inactive: 0.072; with vorinostat, inactive: -0.083; with silmitasertib, inactive: -0.047; in test [2], inactive: 0.027; in the test with entospletinib it was inactive: -0.008.

Regarding TRAPPC9 isoform 2 (UniProt Q96Q05), the log2 fold change is inactive: 0.005 in test [1]; active: -0.375 in the test with vorinostat; inactive: 0.046 with silmitasertib; inactive: 0 in test [2]; inactive: -0.049 in the test with entospletinib.

Turning to TRIP11 (UniProt Q15643), the log2 fold change in test [1] was inactive: -0.02; in the test with vorinostat it was inactive: 0.073; with silmitasertib, inactive: -0.029; in test [2], inactive: -0.032; with entospletinib it was inactive: -0.013.

For TSPAN13 (UniProt O95857), the log2 fold change in test [1] is inactive: -0.024; with vorinostat, inactive: 0.104; with silmitasertib, inactive: -0.008; in test [2] it was inactive: 0.008; with entospletinib, inactive: -0.015.

For TRAPPC1 (UniProt Q9Y5R8), the log2 fold change in test [1] is inactive: -0.016; with vorinostat it was inactive: 0.013; in the test with silmitasertib, inactive: 0.047; in test [2] it was inactive: 0.016; with entospletinib, inactive: 0.048.

Consider TSC22D2 (UniProt O75157), for which the log2 fold change was inactive: 0.028 in test [1]; inactive: -0.004 with vorinostat; inactive: -0.035 with silmitasertib; inactive: 0.003 in test [2]; inactive: 0.018 in the test with entospletinib.

As for TRMT10A (UniProt Q8TBZ6), the log2 fold change in test [1] was inactive: 0.032; in the test with vorinostat, inactive: 0.072; with silmitasertib, inactive: -0.058; in test [2], inactive: -0.063; in the test with entospletinib, inactive: -0.012.

With TRIM11 (UniProt Q96F44), the log2 fold change in test [1] is inactive: 0.018; with vorinostat it was active: -0.222; with silmitasertib it was inactive: 0.046; in test [2], inactive: -0.035; with entospletinib it was inactive: -0.045.

In the case of TRIM32 (UniProt Q13049), the log2 fold change in test [1] was inactive: 0.002; with vorinostat, inactive: -0.045; in the test with silmitasertib, inactive: 0.011; in test [2] it was inactive: -0.004; with entospletinib, inactive: -0.061.

On to TSPYL1 (UniProt Q9H0U9), for which the values for the log2 fold change (in the test with vorinostat; with silmitasertib; in test [2]) were inactive: -0.079, inactive: 0.023 and inactive: 0.034, respectively.

Consider TSKS (UniProt Q9UJT2), for which the log2 fold change in test [1] is inactive: 0.037; in the test with vorinostat, inactive: -0.062; with silmitasertib, inactive: 0.041; in test [2], inactive: 0.02; with entospletinib, inactive: -0.118.

With TTC30B (UniProt Q8N4P2), the log2 fold change is inactive: 0.074 in test [1], inactive: 0.109 in test [2] and inactive: -0.119 in the test with entospletinib.
